Data: patent publication US20150368236A1, “2-(PYRIDIN-3-YL)-5-HETARYL-THIAZOLE COMPOUNDS CARRYING AN IMINE OR IMINE-DERIVED SUBSTITUENT FOR COMBATING INVERTEBRATE PESTS” (BASF SE, priority 2012, published 2015)
Some of these results come from one statement about several compounds together.

Key:
Type in all cases: in vivo
[1] = tested on: vetch aphid (Megoura viciae); details: 800 ppm; sprayed broad bean leaf disks; adult aphids; 5 days
[2] = tested on: green peach aphid (Myzus persicae); details: 800 ppm; in aphid diet under artificial membrane; adult aphids; 3 days
[3] = tested on: Cotton Aphid (Aphis gossypii); details: 300 ppm; infested cotton plants sprayed; after 5 days
Procedure: (§1) The active compounds were formulated in cyclohexanone as a 10′ 000 ppm solution supplied in 1.3 ml ABgene® tubes. These tubes were inserted into an automated electrostatic sprayer equipped with an atomizing nozzle and they served as stock solutions for which lower dilutions were made in 1:1 (vol:vol) water:aceton. A nonionic surfactant (Kinetic®) was included in the solution at a volume of 0.01% (v/v).
Cotton plants at the cotyledon stage were infested with aphids prior to treatment by placing a heavily infested leaf from the main aphid colony on top of each cotyledon. Aphids were allowed to transfer overnight to accomplish an infestation of 80-100 aphids per plant and the host leaf was removed. The infested plants were then sprayed by an automated electrostatic plant sprayer equipped with an atomizing spray nozzle. The plants were dried in the sprayer fume hood, removed from the sprayer, and then maintained in a growth room under fluorescent lighting in a 24-hr photoperiod at 25° C. and 20-40% relative humidity. Aphid mortality on the treated plants, relative to mortality on untreated control plants, was determined after 5 days.

[4] = tested on: Cowpea Aphid (Aphis craccivora); details: 300 ppm; colonized cowpea plants sprayed; population reduction assessed after 24, 72 and 120 hours
Procedure: The active compound was dissolved at the desired concentration in a mixture of 1:1 (vol:vol) distilled water:acetone. The test solution was prepared at the day of use. Potted cowpea plants colonized with approximately 100 to 150 aphids of various stages were sprayed after the pest population had been recorded. Population reduction was assessed after 24, 72, and 120 hours.

[5] = tested on: Silverleaf Whitefly (Bemisia Argentifolii); details: 300 ppm; sprayed cotton plants; whitefly adults; 3 days after treatment
Procedure: as §1, with “10,000” for “10′ 000”
Cotton plants at the cotyledon stage (one plant per pot) were sprayed by an automated electrostatic plant sprayer equipped with an atomizing spray nozzle. The plants were dried in the sprayer fume hood and then removed from the sprayer. Each pot was placed into a plastic cup and 10 to 12 whitefly adults (approximately 3 to 5 days old) were introduced. The insects were collected using an aspirator and 0.6 cm, nontoxic Tygon® tubing (R-3603) connected to a barrier pipette tip. The tip, containing the collected insects, was then gently inserted into the soil containing the treated plant, allowing insects to crawl out of the tip to reach the foliage for feeding. Cups were covered with a reusable screened lid (150-micron mesh polyester screen PeCap from Tetko, Inc.). Test plants were maintained in a growth room at 25° C. and 20-40% relative humidity for 3 days, avoiding direct exposure to fluorescent light (24 hour photoperiod) to prevent trapping of heat inside the cup. Mortality was assessed 3 days after treatment, compared to untreated control plants.

Measured: mortality in comparison with untreated controls

CON=C(C)c1cccc(-c2cnc(-c3cccnc3)s2)n1 [Compound 3-2]
at least 75%: all assays above

C(=NNc1ccc2c(c1)OCO2)c1cccc(-c2cnc(-c3cccnc3)s2)n1 [Compound 3-6]
at least 75%: all assays above
